# The list shows a part of the results.
# B1: CBP21 (Serratia marcescens), O83009 (protein)
# chain: MNKTSRTLLSLGLLSAAMFGVSQQANAHGYVESPASRAYQCKLQLNTQCGSVQYEPQSVEGLKGFPQAGPADGHIASADKSTFFELDQQTPTRWNKLNLKTGPNSFTWKLTARHSTTSWRYFITKPNWDASQPLTRASFDLTPFCQFNDGGAIPAAQVTHQCNIPADRSGSHVILAVWDIADTANAFYQAIDVNLSK
# Tests used:
# Assay in all cases: glycan array binding signal (z-score within array); higher = stronger binding
# Details in all cases: glycan notation: IUPAC condensed, linker removed
# [1] = target: Neu5Ac(a2-6)GlcNAc(b1-4)GlcNAc
# In short: (§1)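 Negative Z-scores can be read as non-binding. The Z-score is calculated within each array and then averaged across arrays of one protein sequence at different concentrations or buffers and across linkers. Arrays, 3228 in all, were curated from the Consortium for Functional Glycomics database and kept only where the protein sequence was available.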
# [2] = target: Neu5Ac(a2-6)GlcNAc(b1-4)GlcNAc(b1-4)GlcNAc
# In short: as §1
# Neu5Ac(a2-8)Neu5Ac = target: Neu5Ac(a2-8)Neu5Ac
# In short: as §1
# [3] = target: Neu5Ac(a2-8)Neu5Ac(a2-3)Gal(b1-3)GalNAc(b1-4)[Neu5Ac(a2-3)]Gal(b1-4)Glc
# In short: as §1
# [4] = target: Neu5Ac(a2-8)Neu5Ac(a2-3)Gal(b1-3)GalNAc(b1-4)[Neu5Ac(a2-8)Neu5Ac(a2-3)]Gal(b1-4)Glc
# In short: as §1
# [5] = target: Neu5Ac(a2-8)Neu5Ac(a2-3)Gal(b1-4)Glc
# In short: as §1
# [6] = target: Neu5Ac(a2-8)Neu5Ac(a2-3)Gal(b1-4)GlcNAc
# In short: as §1
# [7] = target: Neu5Ac(a2-8)Neu5Ac(a2-3)[Gal(b1-3)GalNAc(b1-4)]Gal(b1-4)Glc
# In short: as §1
# [8] = target: Neu5Ac(a2-8)Neu5Ac(a2-3)[GalNAc(b1-4)]Gal(b1-4)Glc
# In short: as §1
# [9] = target: Neu5Ac(a2-8)Neu5Ac(a2-8)Neu5Ac
# In short: as §1
# [10] = target: Neu5Ac(a2-8)Neu5Ac(a2-8)Neu5Ac(a2-3)Gal(b1-4)Glc
# In short: as §1
# [11] = target: Neu5Ac(a2-8)Neu5Ac(a2-8)Neu5Ac(a2-3)[Gal(b1-3)GalNAc(b1-4)]Gal(b1-4)Glc
# In short: as §1
# [12] = target: Neu5Ac(a2-8)Neu5Ac(a2-8)Neu5Ac(a2-3)[GalNAc(b1-4)]Gal(b1-4)Glc
# In short: as §1
# [13] = target: Neu5Ac(a2-8)Neu5Ac(a2-8)Neu5Ac(a2-8)Neu5Ac(a2-3)[GalNAc(b1-4)]Gal(b1-4)Glc
# In short: as §1
# [14] = target: Neu5Ac(a2-8)Neu5Gc(a2-3)Gal(b1-4)GlcNAc
# In short: as §1
# [15] = target: Neu5Ac(b2-6)Gal(b1-4)GlcNAc
# In short: as §1
# Neu5Ac(b2-6)GalNAc = target: Neu5Ac(b2-6)GalNAc
# In short: as §1
# [16] = target: Neu5Ac9Ac(a2-3)Gal(b1-3)GlcNAc
# In short: as §1
# [17] = target: Neu5Ac9Ac(a2-3)Gal(b1-4)GlcNAc
# In short: as §1
# [18] = target: Neu5Ac9Ac(a2-6)Gal(b1-4)GlcNAc
# In short: as §1
# [19] = target: Neu5Gc(a2-3)Gal(b1-3)GlcNAc
# In short: as §1
# [20] = target: Neu5Gc(a2-3)Gal(b1-3)[Fuc(a1-4)]GlcNAc
# In short: as §1
# Neu5Gc(a2-3)Gal(b1-4)Glc = target: Neu5Gc(a2-3)Gal(b1-4)Glc
# In short: as §1
# [21] = target: Neu5Gc(a2-3)Gal(b1-4)GlcNAc
# In short: as §1
# [22] = target: Neu5Gc(a2-3)Gal(b1-4)GlcNAc(b1-3)Gal(b1-4)GlcNAc(b1-2)Man(a1-3)[Neu5Gc(a2-3)Gal(b1-4)GlcNAc(b1-3)Gal(b1-4)GlcNAc(b1-2)Man(a1-6)]Man(b1-4)GlcNAc(b1-4)GlcNAc
# In short: as §1
# [23] = target: Neu5Gc(a2-3)Gal(b1-4)[Fuc(a1-3)]GlcNAc
# In short: as §1
# [24] = target: Neu5Gc(a2-6)Gal(b1-4)GlcNAc
# In short: as §1
# Neu5Gc(a2-6)GalNAc = target: Neu5Gc(a2-6)GalNAc
# In short: as §1
# [25] = target: Neu5Gc(a2-8)Neu5Ac(a2-3)Gal(b1-4)GlcNAc
# In short: as §1
# [26] = target: Neu5Gc(a2-8)Neu5Gc(a2-3)Gal(b1-4)GlcNAc
# In short: as §1
# [27] = target: Neu5Gc(a2-8)Neu5Gc(a2-3)Gal(b1-4)GlcNAc(b1-3)Gal(b1-4)GlcNAc
# In short: as §1
# [28] = target: Neu5Gc(a2-8)Neu5Gc(a2-6)Gal(b1-4)GlcNAc
# In short: as §1
# [29] = target: Neu5Gc(b2-6)Gal(b1-4)GlcNAc
# In short: as §1
binder,measurement,setting,value
B1,glycan array binding signal (z-score),[1],-0.211
same,glycan array binding signal (z-score),[2],-0.4
same,glycan array binding signal (z-score),Neu5Ac(a2-8)Neu5Ac,1.8
same,glycan array binding signal (z-score),[3],4
same,glycan array binding signal (z-score),[4],0.155
same,glycan array binding signal (z-score),[5],-0.726
same,glycan array binding signal (z-score),[6],-1.45
same,glycan array binding signal (z-score),[7],1.77
same,glycan array binding signal (z-score),[8],-1.38
same,glycan array binding signal (z-score),[9],0.577
same,glycan array binding signal (z-score),[10],-0.048
same,glycan array binding signal (z-score),[11],0.071
same,glycan array binding signal (z-score),[12],-1.01
same,glycan array binding signal (z-score),[13],-1.29
same,glycan array binding signal (z-score),[14],-1.4
same,glycan array binding signal (z-score),[15],-1.25
same,glycan array binding signal (z-score),Neu5Ac(b2-6)GalNAc,0.2
same,glycan array binding signal (z-score),[16],-0.399
same,glycan array binding signal (z-score),[17],0.285
same,glycan array binding signal (z-score),[18],-0.459
same,glycan array binding signal (z-score),[19],-0.236
same,glycan array binding signal (z-score),[20],0.155
same,glycan array binding signal (z-score),Neu5Gc(a2-3)Gal(b1-4)Glc,-0.615
same,glycan array binding signal (z-score),[21],-1
same,glycan array binding signal (z-score),[22],0.087
same,glycan array binding signal (z-score),[23],-0.274
same,glycan array binding signal (z-score),[24],0.755
same,glycan array binding signal (z-score),Neu5Gc(a2-6)GalNAc,-0.58
same,glycan array binding signal (z-score),[25],-0.645
same,glycan array binding signal (z-score),[26],-0.788
same,glycan array binding signal (z-score),[27],0.62
same,glycan array binding signal (z-score),[28],0.37
same,glycan array binding signal (z-score),[29],1.14

# Given as tab-separated lines: entries from further up.
binder	measurement	setting	value
B1	glycan array binding signal (z-score)	[18]	-0.459
same	glycan array binding signal (z-score)	[19]	-0.236
